{"source": "the supplement of paper PMC4604168 (melanoma cell lines)", "note": "This is one part of the list. Single values are uncertain, as repeats are few or missing.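 The apoptosis fraction was the count of cleaved-PARP antibody-stained nuclei relative to all DNA-stained nuclei, imaged in 1,536-well plates. Screening doses were set so most cells survived, and baseline and induced cleaved-PARP levels vary greatly across cell lines.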"}
{"tested_on": "CBRC014 (line from a melanoma biopsy)", "test": "cleaved PARP positive nuclei fraction relative to DMSO control; melanoma cells; higher = more apoptosis", "details": "library dose: low library concentration; 72 h", "units": {"cleaved PARP positive nuclei fraction": "%"}}
{"smiles": "O=C(/C=C/c1cccnc1)NCCCCC1CCN(C(=O)c2ccccc2)CC1", "note": "+ CC1(C)NC(=O)N(c2ccc([N+](=O)[O-])c(C(F)(F)F)c2)C1=O [nilutamide] (first compound 0.01 µM, partner dose 1 µM)", "cleaved PARP positive nuclei fraction": 95.4}
{"smiles": "Cc1ccc(Nc2nccc(N(C)c3ccc4c(C)n(C)nc4c3)n2)cc1S(N)(=O)=O", "note": "[Pazopanib] + C[C@@H]1CCN(C(=O)CC#N)C[C@@H]1N(C)c1ncnc2[nH]ccc12 [CP690550] (first compound 0.4 µM, partner dose 1 µM)", "cleaved PARP positive nuclei fraction": 94}
{"smiles": "O=C(Nc1cc(C(F)(F)F)cc(C(F)(F)F)c1)c1cc(Cl)ccc1O", "note": "+ Cc1cc(N2CCOCC2)cc2[nH]c(-c3c(NC[C@@H](O)c4cccc(Cl)c4)cc[nH]c3=O)nc12 [BMS536924] (first compound 0.016 µM, partner dose 0.2 µM)", "cleaved PARP positive nuclei fraction": 79.9}
{"smiles": "Cc1cn(-c2cc(NC(=O)c3ccc(C)c(Nc4nccc(-c5cccnc5)n4)c3)cc(C(F)(F)F)c2)cn1", "note": "[nilotinib] + CO[C@@H]1[C@H](N(C)C(=O)c2ccccc2)C[C@H]2O[C@]1(C)n1c3ccccc3c3c4c(c5c6ccccc6n2c5c31)C(=O)NC4 [Midostaurin] (first compound 0.2 µM, partner dose 0.08 µM)", "cleaved PARP positive nuclei fraction": 103}
{"smiles": "O=C(Nc1cc(C(F)(F)F)cc(C(F)(F)F)c1)c1cc(Cl)ccc1O", "note": "+ NC(=O)Nc1cc(-c2cccc(F)c2)sc1C(=O)N[C@H]1CCCNC1 [AZD7762] (first compound 0.016 µM, partner dose 0.02 µM)", "cleaved PARP positive nuclei fraction": 75.6}
{"smiles": "Cc1ccc(Nc2nccc(N(C)c3ccc4c(C)n(C)nc4c3)n2)cc1S(N)(=O)=O", "note": "[Pazopanib] + COc1cc2c(Oc3ccc4[nH]c(C)cc4c3F)ncnc2cc1OCCCN1CCCC1 [cediranib] (first compound 0.4 µM, partner dose 0.4 µM)", "cleaved PARP positive nuclei fraction": 85.5}
{"smiles": "Cc1cn(-c2cc(NC(=O)c3ccc(C)c(Nc4nccc(-c5cccnc5)n4)c3)cc(C(F)(F)F)c2)cn1", "note": "[nilotinib] + Cc1cc(N2CCOCC2)cc2[nH]c(-c3c(NC[C@@H](O)c4cccc(Cl)c4)cc[nH]c3=O)nc12 [BMS536924] (first compound 0.2 µM, partner dose 0.2 µM)", "cleaved PARP positive nuclei fraction": 97.1}
{"smiles": "O=c1[nH]nc(Sc2ncc([N+](=O)[O-])s2)n1-c1ccc2c(c1)OCCO2", "note": "+ O=C(Nc1cccc(Cl)c1)Nc1ncc(CCNc2ncnc3ccsc23)s1 [SNS314] (first compound 0.2 µM, partner dose 0.0008 µM)", "cleaved PARP positive nuclei fraction": 76.5}
{"smiles": "Cc1ccc(Nc2nccc(N(C)c3ccc4c(C)n(C)nc4c3)n2)cc1S(N)(=O)=O", "note": "[Pazopanib] + Cc1cc(N2CCOCC2)cc2[nH]c(-c3c(NC[C@@H](O)c4cccc(Cl)c4)cc[nH]c3=O)nc12 [BMS536924] (first compound 0.4 µM, partner dose 0.2 µM)", "cleaved PARP positive nuclei fraction": 101}
{"smiles": "COc1cc([C@@H]2c3cc4c(cc3[C@@H](O[C@@H]3O[C@@H]5CO[C@@H](C)O[C@H]5[C@H](O)[C@H]3O)[C@H]3COC(=O)[C@H]23)OCO4)cc(OC)c1O", "note": "[etoposide] + C[C@@H]1CCN(C(=O)CC#N)C[C@@H]1N(C)c1ncnc2[nH]ccc12 [CP690550] (first compound 0.02 µM, partner dose 1 µM)", "cleaved PARP positive nuclei fraction": 67}
{"smiles": "Cc1cc(Nc2cc(N3CCN(C)CC3)nc(Sc3ccc(NC(=O)C4CC4)cc3)n2)n[nH]1", "note": "[Tozasertib] + CN(C)S(=O)(=O)c1ccc2c(c1)/C(=C/c1cc3c([nH]1)CCCC3)C(=O)N2 [SU6656] (first compound 0.006 µM, partner dose 0.4 µM)", "cleaved PARP positive nuclei fraction": 89.1}
{"smiles": "O=C(/C=C/c1cccnc1)NCCCCC1CCN(C(=O)c2ccccc2)CC1", "note": "+ CN(NC(=O)CC(=O)NN(C)C(=S)c1ccccc1)C(=S)c1ccccc1 [STA4783] (first compound 0.01 µM, partner dose 0.006 µM)", "cleaved PARP positive nuclei fraction": 160}
{"smiles": "O=C(Nc1cc(C(F)(F)F)cc(C(F)(F)F)c1)c1cc(Cl)ccc1O", "note": "+ CN(NC(=O)CC(=O)NN(C)C(=S)c1ccccc1)C(=S)c1ccccc1 [STA4783] (first compound 0.016 µM, partner dose 0.006 µM)", "cleaved PARP positive nuclei fraction": 885}
{"smiles": "COc1cc([C@@H]2c3cc4c(cc3[C@@H](O[C@@H]3O[C@@H]5CO[C@@H](C)O[C@H]5[C@H](O)[C@H]3O)[C@H]3COC(=O)[C@H]23)OCO4)cc(OC)c1O", "note": "[etoposide] + NC(=O)Nc1cc(-c2cccc(F)c2)sc1C(=O)N[C@H]1CCCNC1 [AZD7762] (first compound 0.02 µM, partner dose 0.02 µM)", "cleaved PARP positive nuclei fraction": 89.5}
